Reference: the supplement of paper PMC10849652
The list shows a part of the results.

The chains behind the UniProt entries cited, without tags or fusion partners. Where a name states a change or a piece, a line headed by the entry shows the natural chain unless it says otherwise.
UniProt Q658P3: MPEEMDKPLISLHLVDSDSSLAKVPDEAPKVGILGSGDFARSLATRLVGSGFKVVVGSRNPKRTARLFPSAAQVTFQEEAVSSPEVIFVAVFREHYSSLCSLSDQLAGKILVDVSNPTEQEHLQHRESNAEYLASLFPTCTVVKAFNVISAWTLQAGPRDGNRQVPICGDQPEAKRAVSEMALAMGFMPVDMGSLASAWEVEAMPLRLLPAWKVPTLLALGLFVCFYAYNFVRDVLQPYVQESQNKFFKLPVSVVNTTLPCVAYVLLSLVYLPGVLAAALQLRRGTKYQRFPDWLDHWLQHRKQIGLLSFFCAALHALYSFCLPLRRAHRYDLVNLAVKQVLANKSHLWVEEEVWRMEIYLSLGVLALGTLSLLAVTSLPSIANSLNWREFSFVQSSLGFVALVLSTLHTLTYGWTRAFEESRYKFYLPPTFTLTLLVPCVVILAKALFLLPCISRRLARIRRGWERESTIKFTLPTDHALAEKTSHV
UniProt Q5T280: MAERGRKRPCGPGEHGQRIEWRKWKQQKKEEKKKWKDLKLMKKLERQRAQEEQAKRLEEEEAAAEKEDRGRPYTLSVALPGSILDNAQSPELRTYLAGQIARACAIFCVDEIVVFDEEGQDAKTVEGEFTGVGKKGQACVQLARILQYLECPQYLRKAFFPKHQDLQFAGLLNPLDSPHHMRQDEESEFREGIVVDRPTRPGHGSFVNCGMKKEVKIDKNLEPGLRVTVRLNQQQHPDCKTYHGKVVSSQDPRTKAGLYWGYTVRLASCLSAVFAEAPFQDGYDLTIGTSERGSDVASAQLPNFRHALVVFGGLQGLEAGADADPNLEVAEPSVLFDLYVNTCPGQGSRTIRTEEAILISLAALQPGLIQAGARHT
UniProt Q16629: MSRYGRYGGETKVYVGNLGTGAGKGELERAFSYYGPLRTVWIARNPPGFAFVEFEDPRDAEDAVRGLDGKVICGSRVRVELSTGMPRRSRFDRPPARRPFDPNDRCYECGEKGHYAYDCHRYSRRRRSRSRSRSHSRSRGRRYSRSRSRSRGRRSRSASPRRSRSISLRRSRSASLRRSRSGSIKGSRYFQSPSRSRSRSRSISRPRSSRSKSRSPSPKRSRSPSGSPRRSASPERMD
UniProt Q16385, whole entry, looked up: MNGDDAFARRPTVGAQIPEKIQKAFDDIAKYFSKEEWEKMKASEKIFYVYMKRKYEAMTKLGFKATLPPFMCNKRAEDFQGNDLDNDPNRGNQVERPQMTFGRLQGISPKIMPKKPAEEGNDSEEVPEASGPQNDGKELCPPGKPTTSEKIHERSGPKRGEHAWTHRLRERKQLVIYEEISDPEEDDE
UniProt Q68D10: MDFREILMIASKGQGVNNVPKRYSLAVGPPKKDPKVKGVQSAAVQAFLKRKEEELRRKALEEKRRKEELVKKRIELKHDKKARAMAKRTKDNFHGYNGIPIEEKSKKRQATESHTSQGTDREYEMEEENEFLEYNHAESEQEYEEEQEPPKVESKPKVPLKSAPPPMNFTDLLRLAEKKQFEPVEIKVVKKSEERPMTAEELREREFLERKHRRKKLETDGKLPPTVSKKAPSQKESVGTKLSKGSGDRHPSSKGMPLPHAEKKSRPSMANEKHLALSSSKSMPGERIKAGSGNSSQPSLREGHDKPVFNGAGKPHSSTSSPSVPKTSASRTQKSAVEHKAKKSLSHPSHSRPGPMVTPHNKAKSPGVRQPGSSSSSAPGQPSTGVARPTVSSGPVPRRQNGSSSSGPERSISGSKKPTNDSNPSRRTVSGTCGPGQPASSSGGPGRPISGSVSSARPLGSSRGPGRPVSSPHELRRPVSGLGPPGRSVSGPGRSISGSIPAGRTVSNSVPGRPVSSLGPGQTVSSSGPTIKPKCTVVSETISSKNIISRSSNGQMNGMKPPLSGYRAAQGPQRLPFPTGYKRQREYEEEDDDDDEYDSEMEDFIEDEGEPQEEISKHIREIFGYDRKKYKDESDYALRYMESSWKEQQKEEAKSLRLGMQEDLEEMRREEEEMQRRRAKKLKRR
UniProt Q9NZD8: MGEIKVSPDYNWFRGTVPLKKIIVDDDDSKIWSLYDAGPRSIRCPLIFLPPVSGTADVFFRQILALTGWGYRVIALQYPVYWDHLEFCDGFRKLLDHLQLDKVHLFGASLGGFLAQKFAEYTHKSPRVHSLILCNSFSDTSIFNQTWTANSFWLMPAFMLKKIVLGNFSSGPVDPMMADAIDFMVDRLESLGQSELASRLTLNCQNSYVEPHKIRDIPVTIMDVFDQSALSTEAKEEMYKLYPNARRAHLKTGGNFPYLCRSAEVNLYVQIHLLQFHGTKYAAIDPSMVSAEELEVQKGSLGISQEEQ
UniProt O95630, whole entry, looked up: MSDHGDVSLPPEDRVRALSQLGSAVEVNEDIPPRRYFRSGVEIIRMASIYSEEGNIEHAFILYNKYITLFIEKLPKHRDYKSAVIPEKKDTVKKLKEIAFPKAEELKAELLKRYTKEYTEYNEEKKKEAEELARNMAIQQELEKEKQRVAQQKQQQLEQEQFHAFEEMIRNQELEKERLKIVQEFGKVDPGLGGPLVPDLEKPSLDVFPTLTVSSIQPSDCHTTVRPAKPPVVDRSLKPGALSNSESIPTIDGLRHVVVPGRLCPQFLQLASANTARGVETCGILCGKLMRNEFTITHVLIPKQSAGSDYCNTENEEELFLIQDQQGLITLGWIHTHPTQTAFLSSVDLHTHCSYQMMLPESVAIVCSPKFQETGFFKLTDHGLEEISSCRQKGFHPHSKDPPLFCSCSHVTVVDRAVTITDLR
UniProt Q08AE8, whole entry, looked up: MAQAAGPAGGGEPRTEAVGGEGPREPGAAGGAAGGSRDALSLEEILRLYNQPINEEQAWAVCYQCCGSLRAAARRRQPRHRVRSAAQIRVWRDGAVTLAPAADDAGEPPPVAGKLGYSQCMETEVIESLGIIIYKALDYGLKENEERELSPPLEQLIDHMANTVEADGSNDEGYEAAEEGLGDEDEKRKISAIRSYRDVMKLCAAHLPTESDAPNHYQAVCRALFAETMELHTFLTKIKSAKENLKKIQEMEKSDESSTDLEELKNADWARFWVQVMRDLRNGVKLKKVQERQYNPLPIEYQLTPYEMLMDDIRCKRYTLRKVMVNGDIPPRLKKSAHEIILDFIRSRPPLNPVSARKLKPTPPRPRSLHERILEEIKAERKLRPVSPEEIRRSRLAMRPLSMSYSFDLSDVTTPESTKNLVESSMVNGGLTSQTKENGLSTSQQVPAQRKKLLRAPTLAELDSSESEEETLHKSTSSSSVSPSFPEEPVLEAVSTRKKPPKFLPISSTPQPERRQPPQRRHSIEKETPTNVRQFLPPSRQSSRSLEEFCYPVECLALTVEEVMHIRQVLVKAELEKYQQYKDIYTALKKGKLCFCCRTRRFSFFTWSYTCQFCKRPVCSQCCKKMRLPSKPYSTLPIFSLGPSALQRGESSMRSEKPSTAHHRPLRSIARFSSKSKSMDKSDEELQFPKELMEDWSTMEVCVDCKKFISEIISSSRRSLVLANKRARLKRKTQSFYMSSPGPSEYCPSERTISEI
UniProt O43278: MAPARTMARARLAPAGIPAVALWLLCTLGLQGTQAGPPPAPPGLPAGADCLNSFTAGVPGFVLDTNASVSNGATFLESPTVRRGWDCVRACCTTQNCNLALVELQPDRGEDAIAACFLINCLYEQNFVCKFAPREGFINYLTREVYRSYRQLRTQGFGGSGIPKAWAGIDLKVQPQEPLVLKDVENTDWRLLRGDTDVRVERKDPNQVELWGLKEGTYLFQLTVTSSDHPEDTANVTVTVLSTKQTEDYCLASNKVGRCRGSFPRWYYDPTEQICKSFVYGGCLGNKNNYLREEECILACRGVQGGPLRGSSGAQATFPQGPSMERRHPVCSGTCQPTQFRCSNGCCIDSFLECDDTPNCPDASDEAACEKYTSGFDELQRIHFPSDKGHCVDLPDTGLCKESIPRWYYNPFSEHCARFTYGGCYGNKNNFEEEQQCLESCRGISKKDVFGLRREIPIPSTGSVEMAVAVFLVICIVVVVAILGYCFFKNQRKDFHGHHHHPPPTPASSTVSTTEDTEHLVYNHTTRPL
UniProt Q9BWG4: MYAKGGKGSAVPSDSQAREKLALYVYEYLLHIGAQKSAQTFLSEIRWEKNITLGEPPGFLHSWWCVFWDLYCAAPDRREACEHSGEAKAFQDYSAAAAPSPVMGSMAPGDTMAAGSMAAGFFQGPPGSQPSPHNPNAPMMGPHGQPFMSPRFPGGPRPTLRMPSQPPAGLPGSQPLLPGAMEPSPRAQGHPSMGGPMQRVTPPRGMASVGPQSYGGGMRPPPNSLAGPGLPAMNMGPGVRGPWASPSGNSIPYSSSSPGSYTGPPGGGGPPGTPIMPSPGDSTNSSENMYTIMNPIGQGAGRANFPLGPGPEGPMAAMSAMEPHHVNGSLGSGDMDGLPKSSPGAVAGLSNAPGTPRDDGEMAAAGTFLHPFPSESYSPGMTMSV
UniProt O75177, whole entry, looked up: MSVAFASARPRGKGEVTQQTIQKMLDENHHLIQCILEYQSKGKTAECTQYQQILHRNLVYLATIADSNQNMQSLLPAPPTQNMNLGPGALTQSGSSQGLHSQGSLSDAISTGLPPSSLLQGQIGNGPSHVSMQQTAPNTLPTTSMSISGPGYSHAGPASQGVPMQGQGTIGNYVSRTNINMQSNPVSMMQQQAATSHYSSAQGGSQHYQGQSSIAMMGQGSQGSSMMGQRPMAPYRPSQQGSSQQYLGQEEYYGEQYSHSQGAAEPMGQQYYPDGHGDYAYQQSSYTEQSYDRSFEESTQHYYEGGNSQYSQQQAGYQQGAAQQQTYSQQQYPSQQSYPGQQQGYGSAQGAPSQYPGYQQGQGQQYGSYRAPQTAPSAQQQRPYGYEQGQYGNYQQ
UniProt Q9NUQ6: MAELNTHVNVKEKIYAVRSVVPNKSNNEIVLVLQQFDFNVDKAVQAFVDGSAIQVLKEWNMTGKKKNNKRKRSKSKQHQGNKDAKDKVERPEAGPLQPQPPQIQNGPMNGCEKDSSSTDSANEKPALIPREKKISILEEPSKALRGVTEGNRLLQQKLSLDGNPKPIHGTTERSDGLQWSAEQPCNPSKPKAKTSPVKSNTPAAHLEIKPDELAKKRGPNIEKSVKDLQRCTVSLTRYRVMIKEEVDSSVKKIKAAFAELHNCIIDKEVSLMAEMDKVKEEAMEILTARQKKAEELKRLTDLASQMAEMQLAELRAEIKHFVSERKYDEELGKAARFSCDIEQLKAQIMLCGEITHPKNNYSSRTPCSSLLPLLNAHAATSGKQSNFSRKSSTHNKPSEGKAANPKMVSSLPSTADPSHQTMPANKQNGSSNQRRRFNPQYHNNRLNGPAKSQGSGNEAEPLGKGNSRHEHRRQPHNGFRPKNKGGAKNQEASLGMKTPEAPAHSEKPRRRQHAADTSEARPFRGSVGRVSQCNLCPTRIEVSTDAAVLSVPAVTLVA
UniProt Q9P0W8: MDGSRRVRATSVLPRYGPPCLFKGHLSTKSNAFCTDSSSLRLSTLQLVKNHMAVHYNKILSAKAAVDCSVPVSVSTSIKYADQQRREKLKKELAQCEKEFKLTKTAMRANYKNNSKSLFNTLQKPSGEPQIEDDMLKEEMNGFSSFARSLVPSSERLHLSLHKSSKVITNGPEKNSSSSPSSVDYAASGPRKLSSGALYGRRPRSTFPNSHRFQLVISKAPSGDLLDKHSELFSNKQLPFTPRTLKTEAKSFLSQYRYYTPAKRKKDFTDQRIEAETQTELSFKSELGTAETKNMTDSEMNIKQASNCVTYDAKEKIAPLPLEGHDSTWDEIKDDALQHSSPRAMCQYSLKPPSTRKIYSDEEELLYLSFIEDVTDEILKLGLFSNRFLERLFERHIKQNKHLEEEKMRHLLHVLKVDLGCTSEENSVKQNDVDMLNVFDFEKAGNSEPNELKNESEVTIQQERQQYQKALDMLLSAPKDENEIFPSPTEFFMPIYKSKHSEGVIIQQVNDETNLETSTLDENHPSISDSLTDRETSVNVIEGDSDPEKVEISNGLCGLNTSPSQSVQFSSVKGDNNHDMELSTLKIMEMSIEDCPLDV
UniProt Q9ULZ2: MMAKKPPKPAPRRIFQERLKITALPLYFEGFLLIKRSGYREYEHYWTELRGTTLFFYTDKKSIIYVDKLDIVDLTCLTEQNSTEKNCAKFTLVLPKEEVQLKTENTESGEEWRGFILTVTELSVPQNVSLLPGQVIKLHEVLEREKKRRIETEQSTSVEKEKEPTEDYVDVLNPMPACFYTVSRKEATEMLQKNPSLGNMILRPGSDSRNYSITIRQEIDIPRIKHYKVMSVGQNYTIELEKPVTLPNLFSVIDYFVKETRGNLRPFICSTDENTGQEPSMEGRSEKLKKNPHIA
UniProt P49675, whole entry, looked up: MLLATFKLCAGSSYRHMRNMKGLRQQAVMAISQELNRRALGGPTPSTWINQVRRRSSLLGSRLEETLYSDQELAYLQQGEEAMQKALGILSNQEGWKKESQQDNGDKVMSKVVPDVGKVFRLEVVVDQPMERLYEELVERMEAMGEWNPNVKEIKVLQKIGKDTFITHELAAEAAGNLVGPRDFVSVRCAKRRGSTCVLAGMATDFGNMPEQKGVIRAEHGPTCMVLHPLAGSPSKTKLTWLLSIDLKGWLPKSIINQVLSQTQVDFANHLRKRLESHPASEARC
UniProt P49458: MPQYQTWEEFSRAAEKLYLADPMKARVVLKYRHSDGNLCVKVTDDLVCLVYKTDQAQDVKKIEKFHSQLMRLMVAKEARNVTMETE

compound: Cc1cn(-c2cc(NC(=O)c3ccc(C)c(Nc4nccc(-c5cccnc5)n4)c3)cc(C(F)(F)F)c2)cn1 [nilotinib]; experiment: log2 fold change, soluble protein after heating vs DMSO (PISA); higher = thermal stabilisation; K562 lysate, 10 uM; active = over 0.2 and 3.5 SD of the protein, either way, in both replicates (recomputed)
Summary of the method: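 Soluble protein was defined as the supernatant remaining after 21,000xg for 90 min, following pooling of heated aliquots and adjustment to 0.5% NP-40 at 4°C. Before that, crude K562 extract at 1 mg/mL protein in PBS pH 7.4 with 1 mM MgCl2 was treated with 10 μM compound for 30 min and heated for 3 min across 48°C-58°C. Quantification used TMTpro 16plex LC-MS/MS with channel sums equalised, and values are log-two fold changes in thermal stability relative to solvent controls from duplicates.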

log2 fold change, inactive:
STEAP3 isoform 2 (UniProt Q658P3) -0.039, STAT3 isoform 2 (UniProt P40763) -0.005, SPOUT1 (UniProt Q5T280) 0.056, STAT1 isoform 2 (UniProt P42224) 0.023, SRSF7 (UniProt Q16629) -0.006, SREK1IP1 (UniProt Q8N9Q2) -0.071, SPTAN1 (UniProt Q13813) 0.019, SSX2 (UniProt Q16385) 0.095, SPTY2D1 (UniProt Q68D10) 0.132, STARD3NL (UniProt O95772) -0.104, SPATS2 (UniProt Q86XZ4) -0.069, SPG21 (UniProt Q9NZD8) 0.02, STARD9 (UniProt Q9P2P6) -0.026, STAMBP (UniProt O95630) -0.028, SSU72 (UniProt Q9NP77) 0.031, SPINDOC (UniProt Q9BUA3) 0.092, SPIRE1 (UniProt Q08AE8) 0.064, SPINT1 (UniProt O43278) 0.055, SSBP4 (UniProt Q9BWG4) -0.38, SPATA33 isoform 2 (UniProt Q96N06) -0.355, ST3GAL4 isoform 4 (UniProt Q11206) -0.238, STAG1 (UniProt Q8WVM7) 0.05, SPRED2 (UniProt Q7Z698) -0.049, SS18L1 (UniProt O75177) 0, ST6GALNAC1 (UniProt Q9NSC7) 0.086, SPATS2L isoform 2 (UniProt Q9NUQ6) 0.004, SPATA7 (UniProt Q9P0W8) -0.333, SPG11 (UniProt Q96JI7) -0.024, STAU1 isoform 3 (UniProt O95793) -0.051, STAP1 (UniProt Q9ULZ2) -0.085, STAR (UniProt P49675) 0.037, SPTBN1 isoform 3 (UniProt Q01082) 0.07, SRP9 (UniProt P49458) -0.058
